Results are given in words; binding and its absence hold for the method and conditions named. For some of these results: Binding seen in cells or lysates may run through a third protein. Some results given as binding are weak or reduced against the parent protein; the word gives no strength.
How the values were obtained:
[1] = biological target: INTS5 (N-terminally 8xHis-tagged), recombinant (UniProt Q6P9B9); experiment: SEC; subunits co-expressed in Hi5 insect cells, complex purified by Ni-NTA and streptavidin agarose, 50 uL at 1-2 mg/ml on Superose 6 Increase 3.2/300 in 150 mM KCl, 20 mM HEPES KOH pH 7.8; fractions on SDS-PAGE; both purified
[2] = biological target: INTS4 (N-terminally 8xHis-tagged), recombinant (UniProt Q96HW7); experiment: cryo-EM structure; INTS4/9/11 co-expressed in insect cells, tandem affinity purified, cross-linked with glutaraldehyde on a glycerol gradient (GraFix); single-particle cryo-EM, 3.5 Å overall; both purified
[3] = biological target: INTS4 (N-terminally 8xHis-tagged), recombinant (UniProt Q96HW7); experiment: SEC; subunits co-expressed in Hi5 insect cells, complex purified by Ni-NTA and streptavidin agarose, 50 uL at 1-2 mg/ml on Superose 6 Increase 3.2/300 in 150 mM KCl, 20 mM HEPES KOH pH 7.8; fractions on SDS-PAGE; both purified
[4] = biological target: INTS4/9/11 ternary complex (Integrator cleavage module), recombinant (UniProt Q96HW7); experiment: SEC; purified modules mixed in 1:1 molar ratio, 30 min on ice, Superose 6 Increase 3.2/300 in 150 mM KCl, 20 mM HEPES KOH pH 7.8; shift in elution volume; both purified
[5] = biological target: INTS4/9/11 module co-expressed with INTS10/13/14 (one tag on each module) (UniProt Q96HW7); experiment: pull-down; modules INTS4/9/11 and INTS10/13/14 co-expressed in Hi5 cells, tandem affinity purification with one tag on each module
[6] = biological target: INTS10 (N-terminally 8xHis-tagged), recombinant (UniProt Q9NVR2); experiment: SEC; subunits co-expressed in Hi5 insect cells, complex purified by Ni-NTA and streptavidin agarose, 50 uL at 1-2 mg/ml on Superose 6 Increase 3.2/300 in 150 mM KCl, 20 mM HEPES KOH pH 7.8; fractions on SDS-PAGE; both purified
[7] = biological target: INTS13 (N-terminally SBP-tagged), recombinant (UniProt Q9NVM9); experiment: as above

Chains of the proteins cited; added tags and fusions are not shown.
UniProt Q6P9B9: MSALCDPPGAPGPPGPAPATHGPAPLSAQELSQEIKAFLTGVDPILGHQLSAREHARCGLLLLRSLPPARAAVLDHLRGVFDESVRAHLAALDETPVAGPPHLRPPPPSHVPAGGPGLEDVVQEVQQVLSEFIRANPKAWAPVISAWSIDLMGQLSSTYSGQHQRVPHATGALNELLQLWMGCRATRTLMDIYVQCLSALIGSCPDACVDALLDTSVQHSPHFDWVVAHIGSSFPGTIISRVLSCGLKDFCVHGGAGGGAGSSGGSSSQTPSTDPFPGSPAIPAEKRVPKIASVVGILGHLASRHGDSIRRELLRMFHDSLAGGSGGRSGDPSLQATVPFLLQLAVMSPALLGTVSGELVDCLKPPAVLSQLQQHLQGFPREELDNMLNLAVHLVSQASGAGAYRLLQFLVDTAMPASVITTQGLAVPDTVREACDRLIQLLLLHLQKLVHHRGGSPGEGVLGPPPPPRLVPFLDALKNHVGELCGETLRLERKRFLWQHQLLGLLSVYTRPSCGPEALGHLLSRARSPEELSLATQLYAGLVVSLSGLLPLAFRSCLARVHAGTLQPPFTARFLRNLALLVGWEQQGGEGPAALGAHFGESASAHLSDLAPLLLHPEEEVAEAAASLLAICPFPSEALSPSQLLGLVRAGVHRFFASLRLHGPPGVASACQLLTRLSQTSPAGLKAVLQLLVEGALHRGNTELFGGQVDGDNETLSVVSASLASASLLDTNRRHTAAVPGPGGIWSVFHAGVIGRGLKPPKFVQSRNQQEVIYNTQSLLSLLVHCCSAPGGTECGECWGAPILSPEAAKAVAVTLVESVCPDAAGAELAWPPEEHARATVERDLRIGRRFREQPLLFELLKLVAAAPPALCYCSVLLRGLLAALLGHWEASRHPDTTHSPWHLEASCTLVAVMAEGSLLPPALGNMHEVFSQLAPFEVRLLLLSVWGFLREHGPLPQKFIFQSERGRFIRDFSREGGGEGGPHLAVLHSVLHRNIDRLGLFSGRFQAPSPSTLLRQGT
UniProt Q96HW7: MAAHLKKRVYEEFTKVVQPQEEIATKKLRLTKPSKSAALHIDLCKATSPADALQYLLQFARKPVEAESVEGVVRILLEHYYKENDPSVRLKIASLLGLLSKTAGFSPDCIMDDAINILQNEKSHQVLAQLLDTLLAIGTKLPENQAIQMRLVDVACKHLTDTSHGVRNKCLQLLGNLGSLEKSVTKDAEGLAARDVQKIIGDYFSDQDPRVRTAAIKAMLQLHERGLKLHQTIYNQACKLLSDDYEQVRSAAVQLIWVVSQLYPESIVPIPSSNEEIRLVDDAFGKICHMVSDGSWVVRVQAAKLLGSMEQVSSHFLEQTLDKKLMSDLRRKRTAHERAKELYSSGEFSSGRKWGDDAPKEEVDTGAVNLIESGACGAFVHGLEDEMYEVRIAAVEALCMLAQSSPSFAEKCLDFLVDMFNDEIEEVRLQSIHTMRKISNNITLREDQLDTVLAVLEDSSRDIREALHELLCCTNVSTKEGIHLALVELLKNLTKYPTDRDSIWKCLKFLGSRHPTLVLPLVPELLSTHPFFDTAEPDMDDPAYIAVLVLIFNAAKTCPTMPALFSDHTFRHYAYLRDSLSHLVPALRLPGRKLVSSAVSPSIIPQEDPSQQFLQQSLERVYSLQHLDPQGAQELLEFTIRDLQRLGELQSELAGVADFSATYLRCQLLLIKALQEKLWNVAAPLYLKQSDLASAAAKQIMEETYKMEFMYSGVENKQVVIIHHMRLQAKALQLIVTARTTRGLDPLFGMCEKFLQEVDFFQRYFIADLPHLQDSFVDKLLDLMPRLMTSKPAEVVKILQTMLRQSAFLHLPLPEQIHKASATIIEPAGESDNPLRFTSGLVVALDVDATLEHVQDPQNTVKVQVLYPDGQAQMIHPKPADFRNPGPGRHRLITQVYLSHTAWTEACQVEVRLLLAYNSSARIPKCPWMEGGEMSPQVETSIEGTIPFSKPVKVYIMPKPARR
UniProt Q9NVR2: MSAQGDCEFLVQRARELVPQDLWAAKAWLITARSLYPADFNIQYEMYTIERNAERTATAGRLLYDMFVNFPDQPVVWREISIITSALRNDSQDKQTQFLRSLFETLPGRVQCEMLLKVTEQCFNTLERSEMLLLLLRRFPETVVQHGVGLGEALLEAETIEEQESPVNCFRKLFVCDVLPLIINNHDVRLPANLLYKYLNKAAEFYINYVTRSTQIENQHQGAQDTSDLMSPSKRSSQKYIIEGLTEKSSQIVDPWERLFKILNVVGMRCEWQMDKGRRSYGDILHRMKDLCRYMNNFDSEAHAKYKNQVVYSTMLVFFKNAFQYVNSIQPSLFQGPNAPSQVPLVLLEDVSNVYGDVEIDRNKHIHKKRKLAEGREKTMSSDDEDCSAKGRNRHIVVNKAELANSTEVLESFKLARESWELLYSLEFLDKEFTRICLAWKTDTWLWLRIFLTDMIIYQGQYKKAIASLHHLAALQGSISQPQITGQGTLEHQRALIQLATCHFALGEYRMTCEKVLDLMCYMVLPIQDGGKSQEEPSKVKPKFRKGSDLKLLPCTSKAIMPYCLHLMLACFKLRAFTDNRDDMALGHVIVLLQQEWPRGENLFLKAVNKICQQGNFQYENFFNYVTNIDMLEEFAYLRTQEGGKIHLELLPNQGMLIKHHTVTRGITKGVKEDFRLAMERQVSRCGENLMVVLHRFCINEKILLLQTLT
UniProt Q9NVM9: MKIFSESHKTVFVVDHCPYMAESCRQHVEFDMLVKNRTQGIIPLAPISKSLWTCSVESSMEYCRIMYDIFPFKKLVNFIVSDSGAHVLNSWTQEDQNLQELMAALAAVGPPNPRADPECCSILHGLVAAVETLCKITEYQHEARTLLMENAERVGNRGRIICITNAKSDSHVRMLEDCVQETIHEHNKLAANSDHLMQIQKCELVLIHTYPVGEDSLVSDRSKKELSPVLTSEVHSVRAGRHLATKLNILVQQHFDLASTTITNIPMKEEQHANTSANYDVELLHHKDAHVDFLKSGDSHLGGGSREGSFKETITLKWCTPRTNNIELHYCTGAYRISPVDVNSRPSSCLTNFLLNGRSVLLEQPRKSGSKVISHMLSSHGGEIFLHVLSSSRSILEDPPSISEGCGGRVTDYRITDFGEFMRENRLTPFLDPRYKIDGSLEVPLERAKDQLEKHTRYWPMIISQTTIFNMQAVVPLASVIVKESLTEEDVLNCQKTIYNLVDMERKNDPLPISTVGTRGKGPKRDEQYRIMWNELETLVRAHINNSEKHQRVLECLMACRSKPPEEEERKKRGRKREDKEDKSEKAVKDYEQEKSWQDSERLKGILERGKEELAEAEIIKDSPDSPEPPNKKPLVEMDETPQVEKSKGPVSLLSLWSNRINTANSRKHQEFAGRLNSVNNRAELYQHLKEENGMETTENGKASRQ
UniProt Q75QN2: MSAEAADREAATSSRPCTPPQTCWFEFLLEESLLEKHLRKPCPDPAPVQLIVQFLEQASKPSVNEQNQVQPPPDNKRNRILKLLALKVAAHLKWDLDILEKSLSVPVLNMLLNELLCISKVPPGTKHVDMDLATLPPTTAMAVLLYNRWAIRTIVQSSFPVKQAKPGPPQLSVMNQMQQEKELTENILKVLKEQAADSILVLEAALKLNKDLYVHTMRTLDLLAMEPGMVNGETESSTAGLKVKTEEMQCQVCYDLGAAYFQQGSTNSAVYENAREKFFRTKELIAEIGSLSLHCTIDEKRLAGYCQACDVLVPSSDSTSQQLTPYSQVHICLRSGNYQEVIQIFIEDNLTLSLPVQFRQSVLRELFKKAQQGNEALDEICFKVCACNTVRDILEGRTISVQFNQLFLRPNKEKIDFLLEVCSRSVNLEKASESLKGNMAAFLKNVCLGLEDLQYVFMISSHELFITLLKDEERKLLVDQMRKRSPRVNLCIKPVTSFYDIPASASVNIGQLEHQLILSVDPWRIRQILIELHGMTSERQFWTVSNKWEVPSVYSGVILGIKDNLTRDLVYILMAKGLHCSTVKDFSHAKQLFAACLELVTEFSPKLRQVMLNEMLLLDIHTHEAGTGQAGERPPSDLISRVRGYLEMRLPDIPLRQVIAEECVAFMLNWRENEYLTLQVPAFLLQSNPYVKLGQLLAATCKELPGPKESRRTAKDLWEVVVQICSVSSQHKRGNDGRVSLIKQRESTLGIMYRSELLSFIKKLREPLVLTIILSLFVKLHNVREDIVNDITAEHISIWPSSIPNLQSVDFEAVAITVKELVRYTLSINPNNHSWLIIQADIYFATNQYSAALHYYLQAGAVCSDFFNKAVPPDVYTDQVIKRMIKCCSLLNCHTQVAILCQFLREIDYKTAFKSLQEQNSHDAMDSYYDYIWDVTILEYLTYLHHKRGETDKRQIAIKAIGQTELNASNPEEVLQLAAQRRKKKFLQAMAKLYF
UniProt Q9NV88: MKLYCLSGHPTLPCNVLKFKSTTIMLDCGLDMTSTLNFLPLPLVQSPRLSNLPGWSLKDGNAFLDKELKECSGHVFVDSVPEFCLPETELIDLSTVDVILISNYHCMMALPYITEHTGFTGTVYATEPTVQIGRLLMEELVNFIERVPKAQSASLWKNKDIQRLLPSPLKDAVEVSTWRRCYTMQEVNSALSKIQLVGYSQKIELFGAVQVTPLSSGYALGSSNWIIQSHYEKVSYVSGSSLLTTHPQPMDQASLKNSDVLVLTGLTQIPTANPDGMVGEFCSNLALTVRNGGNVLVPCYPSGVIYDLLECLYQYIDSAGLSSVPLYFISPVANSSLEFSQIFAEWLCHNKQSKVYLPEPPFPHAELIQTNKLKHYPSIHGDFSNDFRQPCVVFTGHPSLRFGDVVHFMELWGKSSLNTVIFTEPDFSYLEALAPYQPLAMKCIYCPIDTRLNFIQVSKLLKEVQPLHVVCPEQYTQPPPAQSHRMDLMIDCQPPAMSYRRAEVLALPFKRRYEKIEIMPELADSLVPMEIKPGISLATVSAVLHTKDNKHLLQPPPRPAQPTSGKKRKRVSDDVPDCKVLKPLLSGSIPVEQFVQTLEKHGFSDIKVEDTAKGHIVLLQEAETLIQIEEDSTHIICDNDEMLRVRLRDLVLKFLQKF
UniProt Q96SY0: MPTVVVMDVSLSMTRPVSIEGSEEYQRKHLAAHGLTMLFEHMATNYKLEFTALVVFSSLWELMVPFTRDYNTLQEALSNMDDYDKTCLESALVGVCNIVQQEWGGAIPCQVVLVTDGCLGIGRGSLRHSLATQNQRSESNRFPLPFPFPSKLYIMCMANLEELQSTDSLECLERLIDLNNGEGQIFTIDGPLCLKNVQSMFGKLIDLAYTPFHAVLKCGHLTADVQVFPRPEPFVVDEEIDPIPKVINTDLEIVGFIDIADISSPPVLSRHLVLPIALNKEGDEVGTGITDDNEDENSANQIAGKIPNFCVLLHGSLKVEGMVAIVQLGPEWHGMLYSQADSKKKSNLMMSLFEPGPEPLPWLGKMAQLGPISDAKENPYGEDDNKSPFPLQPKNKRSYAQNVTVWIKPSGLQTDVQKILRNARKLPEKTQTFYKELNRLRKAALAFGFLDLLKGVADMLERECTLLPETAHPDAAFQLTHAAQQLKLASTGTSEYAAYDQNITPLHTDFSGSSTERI

With “INTS8 (N-terminally SBP-tagged), recombinant (from UniProt Q75QN2 1-995)” the binding [1] was “binds”.
For “INTS9, recombinant (from UniProt Q9NV88 1-658)”, the binding [2] was “binds” and the binding [3] was “binds”.
In the case of “INTS10/13/14 complex, recombinant (from UniProt Q9NVR2 1-710; Q9NVM9 1-706; Q96SY0 1-518)”, the binding [4] is reported as “binds”.
For “INTS10/13/14 module co-expressed with INTS4/9/11 (one tag on each module) (from UniProt Q9NVR2 1-710; Q9NVM9 1-706; Q96SY0 1-518) (complex)”, the binding [5] was “binds”.
For “INTS13 (N-terminally SBP-tagged), recombinant (from UniProt Q9NVM9 1-706)”, the binding [6] was “binds”.
With “INTS14, recombinant (from UniProt Q96SY0 1-518)” the binding [7] was “binds”.

Source: article PMC7980224
